## Primary screen of a compound library

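Viability assay of Plasmodium falciparum sporozoites; the read-out is not stated. The concentration is filed as 10 mM, unlikely as a test dose, so the dose is not known. The record gives no direction; compounds that gave an IC50 in retests scored well above the rest, so higher reads as lower viability. Strong results were mostly tested again. Of about 34,000 compounds tested this way, about 280 (0.84%) reached 50% or more in at least one test.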

Values are the deposited “Percent Effect”, in %. The record does not define 0% and 100%; most values in the screen are far below 50% and negative numbers occur (in some assays of this library far below -100). Compounds were drawn at random from those tested, without regard to their results. Two or more numbers in one place are separate tests of the same structure; such repeats can differ widely.

{"compound": "CCO[C@@H]1CCN(C(=O)c2ccc[nH]2)[C@@H]1Cc1cccnc1.O=C(O)C(F)(F)F", "percent effect": -12.41}
{"compound": "CCn1cc(C(=O)N2CCCC(c3nccs3)C2)cn1", "stereo": "centres unmarked", "percent effect": -5.69}
{"compound": "CC(C)CN1CCC(NC(=O)c2ccc(F)cc2I)CC1", "percent effect": -10.08}
{"compound": "O=C(NCc1cn2c(n1)SCC2)c1cn(CCN2CCCCC2)nn1", "percent effect": 2.104}
{"compound": "CC1CCN(CCNC(=O)c2cncnc2C(C)C)CC1", "percent effect": -1.568}
{"compound": "CCc1cnc(CN2CCC(N(C)Cc3noc(C)n3)C2)o1", "stereo": "centres unmarked", "percent effect": 6.853}
{"compound": "Cl.O=C(c1ccccc1)N1CCC2(CC1)CNc1c(F)cccc12", "percent effect": 6.066}
{"compound": "O=C(O)C(F)(F)F.[H][C@@]12CN(CC3CCOC3)CCC[C@]1(C(=O)O)CN(c1ncccn1)C2", "stereo": "some centres unmarked", "percent effect": -1.051}
{"compound": "O=C(O)C(F)(F)F.[H][C@]12CN(c3ncccn3)C[C@@]1(C(=O)N(C)C)CCCN(S(=O)(=O)CC)C2", "percent effect": 11.36}
{"compound": "COCCN1CCN(C(=O)N2CCCC2)Cc2ccc(C)nc21.O=C(O)C(F)(F)F", "percent effect": 10.33}
{"compound": "Cc1cc(NCCCNc2cccnc2)n2nc(C)c(C)c2n1", "percent effect": -6.496}
{"compound": "CNC(=O)CCCNCc1c(C)nn(C)c1N(C)C", "percent effect": -0.6441}
{"compound": "Cn1cc(-c2nnn3c2COC(CNCc2ccccn2)C3)cn1", "stereo": "centres unmarked", "percent effect": -24.88}
{"compound": "Cc1ccc(CC(=O)N2CCc3nnc(N(C)C)cc3C2)cn1", "percent effect": 10.31}
{"compound": "CS(=O)(=O)N[C@@H]1CN(Cc2ccc3ncccc3c2)C[C@H]1O", "percent effect": 7.292}
{"compound": "CCc1noc(CN(C)C(=O)COc2cc(Cl)cc(Cl)c2)n1", "percent effect": -4.772}
{"compound": "Cc1nn(C)c(N(C)C)c1CNCc1ccccc1Cn1cccn1", "percent effect": 1.009}
{"compound": "[H][C@@]12CCN(C(=O)c3ccnnc3)C[C@@]1([H])O[C@H](c1nc(C)c(C)s1)C2", "percent effect": -1.899}
{"compound": "Cn1ncc2c1C(COCC1CC1)CN(Cc1ccc(F)cc1)C2", "stereo": "centres unmarked", "percent effect": 1.829}
{"compound": "Cc1ccc(N2CCCN(C(=O)CCC3CCCO3)CC2)nn1", "stereo": "centres unmarked", "percent effect": 8.581}
{"compound": "Cc1ccc(CN(Cc2[nH]cnc2C)C2CC(C)(C)NC(C)(C)C2)o1.O=C(O)CC(O)(CC(=O)O)C(=O)O", "percent effect": 5.596}
{"compound": "Cc1cc(CN2CC[C@]3(C[C@@H](OCC(=O)N(C)C)CO3)C2)no1.O=C(O)C(F)(F)F", "percent effect": -6.218}
{"compound": "[H][C@@]12COC[C@H](C(=O)N3CCCO3)[C@]1([H])CN(Cc1ccco1)C2", "percent effect": "-15.03 & -4.654 & -11.18"}
{"compound": "CO[C@@H]1CN(c2ccccc2)S(=O)(=O)[C@@]12CCN(CC1CC1)C2", "percent effect": -42.23}
{"compound": "O=C(NCC1(CO)CC1)c1nnn(-c2ccc(F)cc2)c1C1CC1", "percent effect": 1.207}
{"compound": "CC(=O)N1CCOC(c2c(C(=O)NCCN(C)C)sc3ccccc23)C1", "stereo": "centres unmarked", "percent effect": 3.684}
{"compound": "COCCCN(CCOC)C(=O)Nc1ccccc1Br", "percent effect": -6.877}
{"compound": "CC(c1nc(C2CC2)no1)N1CCN(Cc2cccc(F)c2F)CC1", "stereo": "centres unmarked", "percent effect": 2.023}
{"compound": "C[C@@H]1CN(c2ccc3c(Cl)ccnc3c2F)CC(C(N)=O)O1", "stereo": "some centres unmarked", "percent effect": "5.255 & 15.91"}
{"compound": "Cc1ccc(C(=O)OC(C)Cn2cccn2)c(=O)[nH]1", "stereo": "centres unmarked", "percent effect": -0.7667}
{"compound": "CCc1ncc2c(n1)CN(Cc1nc(-c3ccsc3)oc1C)CC2", "percent effect": 11}
{"compound": "OC[C@@H]1CCCN1c1nccc(-c2c[nH]nc2-c2ccncc2)n1", "percent effect": 3.472}
{"compound": "CN(C)C(=O)CN1CCC2(CCN(Cc3nccs3)CC2)C1=O.O=C(O)C(F)(F)F", "percent effect": 3.571}
{"compound": "Cc1cc(F)ccc1-c1ccccc1CC1CNCCNC1=O.Cl", "stereo": "centres unmarked", "percent effect": 9.056}
{"compound": "CC(C)c1n[nH]c(C2CN(C(=O)c3cn4ccccc4n3)CCO2)n1", "stereo": "centres unmarked", "percent effect": -4.937}
{"compound": "COc1cccc(CN2CCN(C(=O)CN3CCOCC3)CC2)n1", "percent effect": -6.275}
{"compound": "Cc1nc(C)n(CC2CCCN2Cc2nc(-c3ccccn3)no2)n1", "stereo": "centres unmarked", "percent effect": "15.27 & 12.4 & 29.43"}
{"compound": "O=C(O)c1ccccc1-c1ccc(CN2CCCC(O)C2)cc1", "stereo": "centres unmarked", "percent effect": -0.5927}
{"compound": "CCOc1ccccc1Nc1nc2c(C)nn(C)c2c(=O)n1C", "percent effect": -7.634}
{"compound": "CC(c1cccnc1)N(C)Cc1cc2cc3c(cc2[nH]c1=O)OCO3", "stereo": "centres unmarked", "percent effect": "-11.25 & 16.46 & -9.938"}
{"compound": "CC(C)c1nnc2n1CCN(C(=O)c1ccc(Cn3cccc3)cc1)C2", "percent effect": 6.02}
{"compound": "O=C(NC1(c2nnn(Cc3ccncc3)n2)CCCC1)c1ccccc1", "percent effect": -7.296}
{"compound": "Cc1cc2n(n1)CC(CNCc1ccnc(-n3ccnc3C)c1)CN2", "stereo": "centres unmarked", "percent effect": 10.72}
{"compound": "CN(C)C(=O)N1CCC(C2C(=O)Nc3ccccc32)CC1", "stereo": "centres unmarked", "percent effect": 1.027}
{"compound": "Cc1cnn(CC2CN(CC(=O)N(C)Cc3ccsc3)CCO2)c1", "stereo": "centres unmarked", "percent effect": 1.485}
{"compound": "Cn1cc(C(=O)N2CCSc3ccccc32)ccc1=O", "percent effect": 1.633}
{"compound": "O=C(O)C(F)(F)F.[H][C@@]12CCN(Cc3ccc(OC)cc3)[C@@]1([H])CC(=O)N2CCOC", "percent effect": -21.11}
{"compound": "CS(=O)(=O)c1cccc(C(=O)N2CCCC(n3cccn3)C2)c1", "stereo": "centres unmarked", "percent effect": -2.442}
{"compound": "COc1ccc2cc(C3CN(C(=O)C4CCOCC4)CCO3)ccc2c1", "stereo": "centres unmarked", "percent effect": "90.24 & 38 & 72.69"}
{"compound": "c1ccc2c(N3CCCCC3)cnnc2c1", "percent effect": -7.399}
{"compound": "COC1CN(C(=O)CC(C)(C)C)CCC(=O)N(C)c2ccccc21", "stereo": "centres unmarked", "percent effect": -29.16}
{"compound": "COCc1cnc2n1CCN(C(=O)c1cnc3ccccc3c1)C2C", "stereo": "centres unmarked", "percent effect": -4.514}
{"compound": "Cc1cccc(CC(=O)NCCCOC(C)C)c1", "percent effect": -2.944}
{"compound": "COCCCN(C)C1CCCN(Cc2noc(C)n2)C1", "stereo": "centres unmarked", "percent effect": -3.759}
{"compound": "CN1CCN(c2cc(CNC(=O)c3ccsc3)ccn2)CC1", "percent effect": 4.114}
{"compound": "COc1c(C2CCCN2CC(=O)Nc2nc(C)cs2)c(C)nn1C", "stereo": "centres unmarked", "percent effect": -5.597}
{"compound": "O=C(O)C(F)(F)F.O=C(c1ccoc1)N1CCOC2(COCCN(c3ncccn3)C2)C1", "stereo": "centres unmarked", "percent effect": 7.031}
{"compound": "Cn1ncc2c1CCCC2NCc1cccc(OC2CCCC2)c1", "stereo": "centres unmarked", "percent effect": -10.69}
{"compound": "Cc1nc2n(n1)CC(NCc1cnn(-c3ccccc3)n1)CC2", "stereo": "centres unmarked", "percent effect": 16.97}
{"compound": "O=C(O)C(F)(F)F.O=C(O)C(F)(F)F.O=S1(=O)c2ccccc2C2(CCN(Cc3cccnc3)C2)N1CC1CC1", "stereo": "centres unmarked", "percent effect": -7.99}

Some entries from above, unchanged:

compound	percent effect
COCCCN(C)C1CCCN(Cc2noc(C)n2)C1 (centres unmarked)	-3.759%
CC(C)CN1CCC(NC(=O)c2ccc(F)cc2I)CC1	-10.08%
Cc1ccc(N2CCCN(C(=O)CCC3CCCO3)CC2)nn1 (centres unmarked)	8.581%
Cc1cc(CN2CC[C@]3(C[C@@H](OCC(=O)N(C)C)CO3)C2)no1.O=C(O)C(F)(F)F	-6.218%
Cc1cc(F)ccc1-c1ccccc1CC1CNCCNC1=O.Cl (centres unmarked)	9.056%
Cc1nc2n(n1)CC(NCc1cnn(-c3ccccc3)n1)CC2 (centres unmarked)	16.97%
[H][C@@]12CCN(C(=O)c3ccnnc3)C[C@@]1([H])O[C@H](c1nc(C)c(C)s1)C2	-1.899%
Cc1ccc(CN(Cc2[nH]cnc2C)C2CC(C)(C)NC(C)(C)C2)o1.O=C(O)CC(O)(CC(=O)O)C(=O)O	5.596%

Measurements from “University of Dundee, Small-Polar-MMV Screening Library” (2021), ChEMBL document CHEMBL3988442.